Results published in PubChem BioAssay AID1487 (National Center for Advancing Translational Sciences (NCATS), 2009).
The other results are listed elsewhere or left out. Further columns of the screen follow, without active or inactive calls. Most of these compounds were active or inconclusive in the main read-out, so they are no random draw. Potencies come from curve fits of mixed quality, noted in brackets.

Assay: qHTS Assay for Modulators of Lamin A Splicing
Settings: HeLa LMNA splicing GFP/RFP minigene ratio, 48 h
In short: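 Read-out is the ratio of GFP to DsRed2 object intensity, acquired by 488 nm laser-scanning cytometry on HeLa lamin A-EGFP minigene reporter cells. Compound incubation 48 hrs at 37 °C in Opti-MEM with 2% FBS; DMSO 0.5% final.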

[1] = measured here: RFP viability control channel
[2] = measured here: GFP splicing reporter channel

Row | Compound | AC50 [1] | AC50 [2]
1 | CN1CCN2c3ccccc3Cc3ccccc3C2C1 (stereo unspecified) | 0.158 µM [falling, full curve, poor fit] | 
2 | COCCn1c(SCc2ccc(C(=O)OC)o2)nc2cc(Cl)ccc2c1=O | 11.2 µM [rising, single point] | 11.2 µM [rising, single point]
3 | CCC(=O)c1ccc(OCC(O)CN2CCN(C(c3ccccc3)c3ccccc3)CC2)cc1 (stereo unspecified) | 35.5 µM [falling, single point] | 35.5 µM [falling, single point]
4 | COc1ccc(-c2cn3nc(SCC(=O)Nc4cc(C)cc(C)c4)ccc3n2)cc1 | 22.4 µM [falling, partial curve, poor fit] | 7.08 µM [falling, partial curve]
5 | c1ccc(CNc2nc(NCc3ccco3)nc(N3CCOCC3)n2)cc1 | 15.8 µM [falling, single point] | 
6 | [N-]=[N+]=Nc1nc2c(N)ncnc2n1C1OC(CO)C(O)C1O (stereo unspecified) | 12.6 µM [falling, partial curve] | 0.501 µM [falling, full curve, poor fit]
7 | C=CCNC(=O)c1onc(CSc2cccc3ccccc23)c1C(=O)O |  | 7.94 µM [falling, single point]
8 | Cc1ccc(C2=NN(C(=O)CCl)C(c3cccs3)C2)o1 (stereo unspecified) | 2.51 µM [rising, partial curve, poor fit] | 22.4 µM [falling, single point]
9 | O=c1c2ccccc2[nH]c2ccccc12 | 31.6 µM [rising, single point] | 31.6 µM [rising, single point]
10 | CCc1nc(Nc2ccc(OC)c(OC)c2)c2nnn(Cc3ccccc3Cl)c2n1 | 2.82 µM [rising, partial curve] | 
11 | COC(=O)c1ccc(CSc2cc(C)c3cccc(C)c3n2)o1 | 15.8 µM [falling, partial curve] | 0.1 µM [falling, full curve]
12 | O=c1c(N2CCN(c3cccc(Cl)c3)CC2)csc2ccc(Cl)cc12 | 17.8 µM [falling, single point] | 35.5 µM [falling, single point]
13 | Cc1cc([N+](=O)[O-])nn1Cc1ccc(C(=O)N/N=C/c2ccc(O)cc2O)cc1 | 14.1 µM [rising, single point] | 
14 | Cc1nc(NC(=S)NC(=O)COc2ccccc2Cl)ccc1Br |  | 11.2 µM [falling, partial curve, poor fit]
15 | S=c1[nH]c(-c2ccccc2)cn1/N=C/c1cccs1 | 0.0398 µM [falling, full curve, poor fit] | 
16 | COc1ccc2nc(SCCOC(=O)Nc3ccc(Cl)cc3)nc(C)c2c1 | 35.5 µM [rising, single point] | 35.5 µM [rising, single point]
17 | C=CCc1cc(C=O)cc(OCC)c1OCc1ccc(Cl)cc1 | 35.5 µM [rising, single point] | 
18 | O=c1c2ccccc2ncn1-c1ccccc1F | 0.000708 µM [falling, full curve, poor fit] | 
19 | O=S(=O)(c1cccs1)N1CCN(CC(O)COc2cccc(Br)c2)CC1 (stereo unspecified) | 12.6 µM [rising, single point] | 
20 | O=C(NCC1CC1)c1ccc(Nc2nc3ccc(Br)cc3[nH]2)cc1 | 35.5 µM [rising, single point] | 15.8 µM [rising, single point]
21 | O=C1NN(c2ccccc2)C(=O)/C1=C\c1ccc(-c2cc([N+](=O)[O-])ccc2O)o1 | 14.1 µM [rising, partial curve] | 
22 | c1cncc(-c2nc(N3CCCCCC3)c3ccccc3n2)c1 | 17.8 µM [rising, single point] | 15.8 µM [rising, single point]
23 | CCN(CC)C(=O)C1CCCN(c2ncnc3c2c(-c2ccccc2)cn3-c2cccc(C)c2)C1 (stereo unspecified) |  | 35.5 µM [falling, single point]
24 | COc1ccc(C(=O)NC(=S)Nc2ccc(N3CCOCC3)c(Cl)c2)cc1[N+](=O)[O-] | 17.8 µM [rising, single point] | 
25 | COc1ccc(-c2cc3ccc(O)c(CN4CCCCC4C)c3oc2=O)cc1OC (stereo unspecified) |  | 0.562 µM [rising, full curve, poor fit]
26 | CC(C)(C)C1CCc2onc(C(=O)NC3CCCC3)c2C1 (stereo unspecified) | 35.5 µM [rising, single point] | 
27 | COc1ccc(C2C(CC(=O)O)=C(Nc3ccccc3)C(=O)N2c2ccccc2)cc1 (stereo unspecified) | 0.891 µM [falling, full curve, poor fit] | 

Arranged by SMILES length (low to high): some entries from above
Row | Compound | AC50 [1] | AC50 [2]
6 | [N-]=[N+]=Nc1nc2c(N)ncnc2n1C1OC(CO)C(O)C1O (stereo unspecified) | 12.6 µM [falling, partial curve] | 0.501 µM [falling, full curve, poor fit]
2 | COCCn1c(SCc2ccc(C(=O)OC)o2)nc2cc(Cl)ccc2c1=O | 11.2 µM [rising, single point] | 11.2 µM [rising, single point]
19 | O=S(=O)(c1cccs1)N1CCN(CC(O)COc2cccc(Br)c2)CC1 (stereo unspecified) | 12.6 µM [rising, single point] | 

Next structures follow:

Row | Compound | AC50 [1] | AC50 [2]
28 | O=C(CCNS(=O)(=O)c1ccc2c(c1)CCN2C(=O)C1CC1)N1CCN(c2cccc(C(F)(F)F)c2)CC1 | 0.0447 µM [falling, full curve, poor fit] | 
29 | O=C1CC(N2CCN(C/C=C/c3ccccc3)CC2)C(=O)N1Cc1ccc(N2CCCC2=O)cc1 (stereo unspecified) | 14.1 µM [rising, partial curve] | 12.6 µM [rising, partial curve]
30 | O=C(c1cc2sccc2n1Cc1ccc(F)cc1)N1CCc2ccccc21 | 1.12 µM [rising, partial curve] | 
31 | COc1ccc(OCc2ccc(-c3nc(C#N)c(NCc4cccnc4)o3)o2)cc1 |  | 28.2 µM [falling, partial curve]
32 | O=c1c2ccccc2c(-c2ccccc2)nn1-c1cc(Cl)ccc1[N+](=O)[O-] | 25.1 µM [rising, single point] | 35.5 µM [rising, single point]
33 | CCCOC(=O)c1[nH]c2c(c1C)C(=O)CC(c1cc(OC)c(OC)c(OC)c1)C2 (stereo unspecified) | 3.16 µM [rising, full curve] | 2.82 µM [rising, full curve, poor fit]
34 | CCN(CC)c1ccc(/C=C(/C#N)c2nc3ccc(C)cc3[nH]2)c(OC(C)C)c1 | 0.0251 µM [falling, single point] | 
35 | C/C(=N\NC(=O)COc1ccccc1-c1ccccc1)c1ccccn1 | 11.2 µM [rising, partial curve] | 
36 | Cc1cc([N+](=O)[O-])ccc1NC(=O)Nc1ccccc1F | 0.0794 µM [rising, partial curve, poor fit] | 
37 | CN1CCN(Cc2nc3ccccc3c(=O)n2Cc2nc(-c3ccc4ccccc4c3)cs2)CC1 | 14.1 µM [falling, single point] | 15.8 µM [falling, single point]
38 | Cc1cc(C)cc(NC(=O)N2CCN(C(=O)c3nsc4ccccc34)CC2)c1 | 22.4 µM [rising, partial curve] | 0.631 µM [rising, full curve, poor fit]
39 | c1cncc(-c2nccc(-n3ccnc3)n2)c1 |  | 0.708 µM [falling, single point]
40 | C/C(=N\Nc1nc(-c2cc(C)ccc2C)cs1)c1cc2c(ccc3ccccc32)oc1=O | 20 µM [rising, partial curve, poor fit] | 
41 | CN(C)CCc1c[nH]c2ccc(CS(=O)(=O)N3CCCC3)cc12 | 4.47 µM [falling, partial curve, poor fit] | 1.58 µM [falling, partial curve, poor fit]
42 | C/C(=N\S(=O)(=O)c1ccc(C)cc1)Nc1cc(C(C)C)c(O)cc1C | 12.6 µM [rising, single point] | 
43 | Cc1ccc(C2(C)NC(=O)N(CC(=O)Nc3cc(S(=O)(=O)N4CCOCC4)ccc3C)C2=O)cc1 (stereo unspecified) | 0.0501 µM [rising, full curve, poor fit] | 1 µM [rising, partial curve]
44 | N#CCCS(=O)(=O)c1nnnn1-c1ccccc1 | 20 µM [rising, partial curve] | 
45 | COc1ccc(NS(=O)(=O)c2ccc(C)c(NC(=O)NC3CCCCC3)c2)cc1 | 35.5 µM [rising, single point] | 
46 | CCOc1ccc(NC(=O)c2sc(NC(C)=O)c(C(=O)OC)c2C)cc1 |  | 0.0447 µM [rising, full curve, poor fit]
47 | COc1ccc(NC(=S)N(CCCN2CCCC2)Cc2cccn2Cc2ccc(Cl)cc2)cc1Cl | 17.8 µM [falling, single point] | 35.5 µM [falling, single point]
48 | C/C(=N\NC(=O)CSCc1ccccc1Cl)c1cc(O)ccc1O |  | 6.31 µM [falling, single point]
49 | Cc1ccc(C(=O)CC2(O)C(=O)N(Cc3ccc4c(c3)OCO4)c3ccccc32)cc1 (stereo unspecified) | 22.4 µM [rising, single point] | 12.6 µM [rising, single point]
50 | COc1ccc(-c2cc(C(=O)N/N=C/c3sccc3C)c3ccccc3n2)c(OC)c1 | 7.08 µM [rising, full curve] | 
51 | Cn1c(Oc2ccc(Cl)cc2)c(C=O)c2ccccc21 |  | 11.2 µM [rising, partial curve, poor fit]
52 | COc1ccc(C(=O)OCC(=O)NCc2ccco2)cc1S(=O)(=O)N1CCN(c2cccc(Cl)c2)CC1 | 12.6 µM [rising, single point] | 10 µM [rising, partial curve, poor fit]
53 | O=C(Nc1ccccc1SCC1CSc2nc3ccccc3c(=O)n21)c1ccccc1Cl (stereo unspecified) | 35.5 µM [rising, single point] | 
54 | Cc1cccc(NC(=S)N(CCCN2CCCC2)Cc2cccn2Cc2ccc(Cl)cc2)c1 | 35.5 µM [falling, single point] | 35.5 µM [falling, partial curve, poor fit]
